Paper PMC7337520

Test system: NF90
Assay: EMSA
Conditions: pH and temperature not given, at least three replicates, recombinant protein, label: radiolabel
[1] = relative to pri-miR-200a, probe letters rebuilt from the primers and the genome, part of a longer molecule

Row | Sequence | binding result [1] | binding result (not highly associated)
1 | AGAGAUGAGGAAGGUUAUGGCUGAGGAACUGGCAUCUAUGAAAGCCAGAUUCAGCUUUCCCUUCAGAGCCUGGCUUUGGCAUCUAUGAAAGCCAGGCUCUGAAGGGAAAGUUGAAUCUUGCUAGAGUGGAGAAUUGAGGAAGAGAUGAGAUGUUAAGGCAAGCCGAGUCUAUGAGGUUUGGGCCA [pri-miR-4755] | binds | 
2 | CCCUUCUACCUUUCUGAAGCUCCUUCUGAAAGAGCAGUUGGUGUUUAUUUUUUACUAAAUAGCAAUUGCUCUUUUGGAAGGAACUUGAGAAGACAUUACUCCUUUUAGGGCCCUAAAAUUAACAGUGGUUUCUACUACUAACAGAUACUAUAGCUAUAAAGGACAUGUAGAAACCAACAAUUGUUGAGUGCCACCUGUGUG [pri-miR-4766] | binds | 
3 | CUGGCUGCUCACCGCUCCGGUUCUUCCCUGGGCUUCCACAGCAGCCCCUGCCUGCCUGGCGGGACCCCACGUCCCUCCCGGGCCCCUGUGAGCAUCUUACCGGACAGUGCUGGAUUUCCCAGCUUGACUCUAACACUGUCUGGUAACGAUGUUCAAAGGUGACCCGCCGCUCGCCGGGGACACCACCGAGGCACAUC [pri-miR-200a WT] |  | binds more weakly

For at least one entry, the source does not settle the construct or the ends of the probe. Weaker means in comparison with the reference protein, sequence or condition of that experiment.
